The list shows a part of the results.
Legend:
Assay in all cases: log2 fold change, soluble protein after heating vs DMSO (PISA); higher = thermal stabilisation; K562 lysate, 10 uM; active = over 0.2 and 3.5 SD of the protein, either way, in both replicates (recomputed)
[1] = compound: C[C@H](C1=CC=C(C=C1)C(=O)NC2=C3C=CNC3=NC=C2)N
Method in brief: (§1)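 The values are log-two fold changes in thermal stability compared with solvent controls and come from duplicates. They were obtained by TMTpro 16plex LC-MS/MS, with channel sums equalised, on the supernatant after 21,000xg for 90 min. That supernatant came from crude K562 extract at 1 mg/mL protein treated with 10 μM compound for 30 min, heated for 3 min across 48°C-58°C, pooled and brought to 0.5% NP-40 at 4°C.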

Chains of the proteins cited; added tags and fusions are not shown. Lines headed by an entry give the natural chain unless they say otherwise; changes in a name come on top.
UniProt Q96GE9: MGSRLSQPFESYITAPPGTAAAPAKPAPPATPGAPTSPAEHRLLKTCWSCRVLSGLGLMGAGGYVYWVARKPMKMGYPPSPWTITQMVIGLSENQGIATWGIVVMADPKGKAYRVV
UniProt Q7L7V1: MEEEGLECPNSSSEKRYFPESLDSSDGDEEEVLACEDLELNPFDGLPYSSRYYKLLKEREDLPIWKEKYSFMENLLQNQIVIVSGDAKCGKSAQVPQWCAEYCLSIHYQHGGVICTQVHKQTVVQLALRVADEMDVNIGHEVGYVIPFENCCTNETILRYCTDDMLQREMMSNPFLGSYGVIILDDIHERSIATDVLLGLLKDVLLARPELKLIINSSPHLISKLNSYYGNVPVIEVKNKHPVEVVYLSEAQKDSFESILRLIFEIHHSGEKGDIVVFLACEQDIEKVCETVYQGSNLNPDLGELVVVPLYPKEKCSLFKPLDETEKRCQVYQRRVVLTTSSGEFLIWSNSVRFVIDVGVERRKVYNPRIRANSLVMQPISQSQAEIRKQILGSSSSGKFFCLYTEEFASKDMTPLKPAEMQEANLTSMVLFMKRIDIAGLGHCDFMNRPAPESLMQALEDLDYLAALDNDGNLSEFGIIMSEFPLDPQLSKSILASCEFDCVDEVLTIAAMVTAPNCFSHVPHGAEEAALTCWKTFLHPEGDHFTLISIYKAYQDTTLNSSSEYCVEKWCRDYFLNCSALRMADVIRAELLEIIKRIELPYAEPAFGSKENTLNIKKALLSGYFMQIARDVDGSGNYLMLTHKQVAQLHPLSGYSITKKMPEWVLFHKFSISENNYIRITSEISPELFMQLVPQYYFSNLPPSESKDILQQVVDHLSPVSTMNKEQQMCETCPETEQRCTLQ
UniProt Q9BY27: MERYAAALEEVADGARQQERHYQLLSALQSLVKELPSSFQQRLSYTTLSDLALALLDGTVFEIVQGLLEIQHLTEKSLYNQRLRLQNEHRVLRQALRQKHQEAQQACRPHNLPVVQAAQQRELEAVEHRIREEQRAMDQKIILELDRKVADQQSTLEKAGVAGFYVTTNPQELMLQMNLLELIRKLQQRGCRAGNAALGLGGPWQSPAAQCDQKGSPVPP
UniProt Q4LDG9: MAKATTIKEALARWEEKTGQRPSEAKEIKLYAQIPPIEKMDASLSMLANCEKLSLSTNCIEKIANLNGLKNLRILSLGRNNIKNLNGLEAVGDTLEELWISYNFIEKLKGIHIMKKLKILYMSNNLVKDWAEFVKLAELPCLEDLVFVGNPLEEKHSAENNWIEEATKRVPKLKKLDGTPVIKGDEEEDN
UniProt Q6Y2X3: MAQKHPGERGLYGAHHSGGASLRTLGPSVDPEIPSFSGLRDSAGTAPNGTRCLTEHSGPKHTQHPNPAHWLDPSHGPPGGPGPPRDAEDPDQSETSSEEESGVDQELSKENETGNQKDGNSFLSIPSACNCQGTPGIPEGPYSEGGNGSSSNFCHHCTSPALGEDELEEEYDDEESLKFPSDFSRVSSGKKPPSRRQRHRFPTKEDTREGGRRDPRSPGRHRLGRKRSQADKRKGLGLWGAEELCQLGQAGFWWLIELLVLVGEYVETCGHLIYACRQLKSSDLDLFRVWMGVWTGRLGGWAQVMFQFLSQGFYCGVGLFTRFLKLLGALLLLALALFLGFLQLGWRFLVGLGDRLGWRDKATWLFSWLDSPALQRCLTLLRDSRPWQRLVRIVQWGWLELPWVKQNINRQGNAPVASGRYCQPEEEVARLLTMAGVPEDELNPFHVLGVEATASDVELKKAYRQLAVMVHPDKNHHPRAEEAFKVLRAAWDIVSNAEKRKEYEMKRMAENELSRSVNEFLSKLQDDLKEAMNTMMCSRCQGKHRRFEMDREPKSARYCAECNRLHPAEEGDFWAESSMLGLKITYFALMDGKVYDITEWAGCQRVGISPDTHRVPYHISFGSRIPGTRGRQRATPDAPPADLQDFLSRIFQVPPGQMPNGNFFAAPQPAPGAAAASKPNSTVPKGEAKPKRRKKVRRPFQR
UniProt Q15398: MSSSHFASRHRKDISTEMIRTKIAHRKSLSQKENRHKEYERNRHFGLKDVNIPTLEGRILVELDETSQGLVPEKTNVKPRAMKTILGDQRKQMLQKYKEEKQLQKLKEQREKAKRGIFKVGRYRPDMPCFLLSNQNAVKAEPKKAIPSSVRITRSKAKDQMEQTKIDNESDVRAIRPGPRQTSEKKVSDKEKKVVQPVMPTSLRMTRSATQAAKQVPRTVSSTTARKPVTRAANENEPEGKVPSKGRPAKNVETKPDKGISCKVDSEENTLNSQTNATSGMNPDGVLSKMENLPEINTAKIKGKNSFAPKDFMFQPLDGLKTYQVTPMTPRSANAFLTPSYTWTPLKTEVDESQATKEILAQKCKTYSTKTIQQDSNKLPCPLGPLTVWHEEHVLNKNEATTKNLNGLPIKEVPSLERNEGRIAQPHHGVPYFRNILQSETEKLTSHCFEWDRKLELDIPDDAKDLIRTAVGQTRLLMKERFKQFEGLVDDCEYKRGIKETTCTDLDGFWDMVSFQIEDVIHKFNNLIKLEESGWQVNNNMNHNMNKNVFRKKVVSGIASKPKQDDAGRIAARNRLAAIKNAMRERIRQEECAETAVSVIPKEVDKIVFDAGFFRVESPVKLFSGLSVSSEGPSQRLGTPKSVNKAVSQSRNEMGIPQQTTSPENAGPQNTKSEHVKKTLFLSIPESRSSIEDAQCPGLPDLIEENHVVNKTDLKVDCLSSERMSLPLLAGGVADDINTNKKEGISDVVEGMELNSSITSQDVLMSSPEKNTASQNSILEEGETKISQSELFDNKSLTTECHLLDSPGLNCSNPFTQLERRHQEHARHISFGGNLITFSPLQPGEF
UniProt P11532, whole entry, looked up: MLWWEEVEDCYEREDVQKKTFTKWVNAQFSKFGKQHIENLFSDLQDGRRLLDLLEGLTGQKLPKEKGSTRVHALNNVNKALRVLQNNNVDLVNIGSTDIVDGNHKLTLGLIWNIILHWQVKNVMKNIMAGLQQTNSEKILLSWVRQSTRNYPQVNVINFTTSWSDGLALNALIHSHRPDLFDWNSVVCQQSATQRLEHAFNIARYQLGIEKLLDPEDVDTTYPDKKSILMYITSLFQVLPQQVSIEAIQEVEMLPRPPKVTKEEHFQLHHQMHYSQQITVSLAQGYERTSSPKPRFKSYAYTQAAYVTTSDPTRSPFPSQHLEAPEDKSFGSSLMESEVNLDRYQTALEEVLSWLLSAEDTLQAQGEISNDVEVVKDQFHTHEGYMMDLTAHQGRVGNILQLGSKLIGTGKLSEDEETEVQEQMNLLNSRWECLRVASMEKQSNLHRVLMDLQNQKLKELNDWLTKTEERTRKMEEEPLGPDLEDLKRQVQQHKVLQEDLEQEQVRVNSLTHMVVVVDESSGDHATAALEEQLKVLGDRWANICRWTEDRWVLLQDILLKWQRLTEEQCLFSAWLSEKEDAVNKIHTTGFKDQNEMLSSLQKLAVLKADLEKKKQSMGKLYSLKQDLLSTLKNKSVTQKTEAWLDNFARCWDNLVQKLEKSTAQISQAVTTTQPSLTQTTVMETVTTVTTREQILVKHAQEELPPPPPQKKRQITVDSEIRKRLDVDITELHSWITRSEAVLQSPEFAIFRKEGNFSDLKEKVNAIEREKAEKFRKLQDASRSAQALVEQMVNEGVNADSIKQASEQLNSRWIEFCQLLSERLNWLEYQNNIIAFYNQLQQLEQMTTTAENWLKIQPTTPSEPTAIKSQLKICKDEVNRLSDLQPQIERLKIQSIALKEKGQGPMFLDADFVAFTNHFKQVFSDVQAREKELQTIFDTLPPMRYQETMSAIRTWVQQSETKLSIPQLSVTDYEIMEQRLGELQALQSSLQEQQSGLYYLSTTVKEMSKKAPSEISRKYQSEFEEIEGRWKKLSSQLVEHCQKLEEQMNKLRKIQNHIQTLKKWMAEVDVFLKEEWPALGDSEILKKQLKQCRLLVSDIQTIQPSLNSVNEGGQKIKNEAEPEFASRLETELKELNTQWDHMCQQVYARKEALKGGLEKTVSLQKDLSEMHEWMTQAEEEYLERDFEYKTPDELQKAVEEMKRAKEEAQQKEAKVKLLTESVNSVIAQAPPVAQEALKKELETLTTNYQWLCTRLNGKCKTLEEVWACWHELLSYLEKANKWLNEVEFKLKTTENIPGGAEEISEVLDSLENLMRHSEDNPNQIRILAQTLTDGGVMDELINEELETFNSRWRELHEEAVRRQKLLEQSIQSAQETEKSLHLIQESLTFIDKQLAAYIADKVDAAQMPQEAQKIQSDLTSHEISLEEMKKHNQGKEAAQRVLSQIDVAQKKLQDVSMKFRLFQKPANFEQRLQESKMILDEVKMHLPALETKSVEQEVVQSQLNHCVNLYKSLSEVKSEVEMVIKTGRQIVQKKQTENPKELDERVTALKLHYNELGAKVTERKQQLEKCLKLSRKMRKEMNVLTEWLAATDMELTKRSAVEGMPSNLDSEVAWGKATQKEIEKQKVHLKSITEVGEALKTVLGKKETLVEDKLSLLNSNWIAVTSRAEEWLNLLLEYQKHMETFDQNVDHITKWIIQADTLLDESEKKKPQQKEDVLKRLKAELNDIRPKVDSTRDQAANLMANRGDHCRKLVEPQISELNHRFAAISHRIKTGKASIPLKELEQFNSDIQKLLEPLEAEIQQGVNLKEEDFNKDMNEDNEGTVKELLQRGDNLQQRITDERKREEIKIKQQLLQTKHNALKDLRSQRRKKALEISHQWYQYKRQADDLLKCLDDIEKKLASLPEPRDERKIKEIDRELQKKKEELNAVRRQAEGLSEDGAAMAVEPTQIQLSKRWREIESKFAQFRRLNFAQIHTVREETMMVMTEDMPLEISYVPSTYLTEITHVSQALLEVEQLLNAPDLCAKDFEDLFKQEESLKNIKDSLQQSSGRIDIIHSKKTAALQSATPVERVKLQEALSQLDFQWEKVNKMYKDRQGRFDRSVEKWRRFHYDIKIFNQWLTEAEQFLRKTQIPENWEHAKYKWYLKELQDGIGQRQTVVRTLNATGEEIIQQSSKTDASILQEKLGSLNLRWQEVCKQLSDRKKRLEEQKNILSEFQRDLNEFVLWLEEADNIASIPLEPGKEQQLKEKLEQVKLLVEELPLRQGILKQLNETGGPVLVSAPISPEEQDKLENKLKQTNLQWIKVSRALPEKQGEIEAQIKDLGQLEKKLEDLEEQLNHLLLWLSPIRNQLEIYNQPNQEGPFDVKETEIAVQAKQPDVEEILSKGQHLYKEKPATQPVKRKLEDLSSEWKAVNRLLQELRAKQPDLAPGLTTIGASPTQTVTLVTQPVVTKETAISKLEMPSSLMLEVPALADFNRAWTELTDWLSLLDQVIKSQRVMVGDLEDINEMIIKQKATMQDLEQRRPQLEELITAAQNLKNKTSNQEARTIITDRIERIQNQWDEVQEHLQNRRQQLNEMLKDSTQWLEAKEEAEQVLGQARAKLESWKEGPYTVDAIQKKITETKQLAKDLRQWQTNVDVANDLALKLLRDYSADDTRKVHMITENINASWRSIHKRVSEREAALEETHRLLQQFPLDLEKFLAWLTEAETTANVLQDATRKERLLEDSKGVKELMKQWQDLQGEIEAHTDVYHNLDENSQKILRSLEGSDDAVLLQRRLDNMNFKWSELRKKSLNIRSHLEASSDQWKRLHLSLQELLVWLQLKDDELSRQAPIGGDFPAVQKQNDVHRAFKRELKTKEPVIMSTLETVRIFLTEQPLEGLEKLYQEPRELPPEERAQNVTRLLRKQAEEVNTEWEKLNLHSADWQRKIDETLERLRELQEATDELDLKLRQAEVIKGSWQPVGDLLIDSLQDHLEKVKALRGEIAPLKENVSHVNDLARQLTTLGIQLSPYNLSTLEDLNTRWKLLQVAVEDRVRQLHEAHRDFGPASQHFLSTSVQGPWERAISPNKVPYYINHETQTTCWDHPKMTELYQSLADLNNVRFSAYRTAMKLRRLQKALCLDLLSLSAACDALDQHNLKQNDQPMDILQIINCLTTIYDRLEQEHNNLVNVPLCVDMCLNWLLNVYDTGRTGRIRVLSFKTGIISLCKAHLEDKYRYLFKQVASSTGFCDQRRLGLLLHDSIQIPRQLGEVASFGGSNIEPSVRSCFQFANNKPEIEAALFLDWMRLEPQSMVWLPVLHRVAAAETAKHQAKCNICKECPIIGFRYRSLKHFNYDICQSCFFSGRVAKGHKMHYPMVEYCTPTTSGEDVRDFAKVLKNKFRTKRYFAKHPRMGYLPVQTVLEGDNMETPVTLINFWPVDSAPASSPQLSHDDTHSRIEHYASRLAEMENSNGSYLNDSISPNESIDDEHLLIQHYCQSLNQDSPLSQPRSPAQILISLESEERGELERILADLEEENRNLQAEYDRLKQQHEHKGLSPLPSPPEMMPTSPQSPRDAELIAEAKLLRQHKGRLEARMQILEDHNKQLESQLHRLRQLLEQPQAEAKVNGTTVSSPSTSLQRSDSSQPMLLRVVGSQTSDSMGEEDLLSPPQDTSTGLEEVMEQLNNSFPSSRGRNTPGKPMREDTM

[2] = compound: Cc1cc(Nc2cc(CN3CCOCC3)c3nc(C)c(Cc4ccc(Cl)cc4F)n3n2)n[nH]1 [gandotinib]
Method in brief: as §1

[3] = compound: Cc1cccc(CC(=O)N2CCc3c2ccc(-c2cn(C)c4ncnc(N)c24)c3F)n1
Method in brief: as §1

[4] = compound: CS(=O)(=O)N1CCN(Cc2cc3nc(-c4cccc5[nH]ncc45)nc(N4CCOCC4)c3s2)CC1 [pictilisib]
Method in brief: as §1

[5] = compound: Cc1ccc(NC(=O)c2ccc(CN3CC[C@H](N(C)C)C3)c(C(F)(F)F)c2)cc1Nc1nccc(-c2cncnc2)n1 [bafetinib]
Method in brief: as §1

[6] = compound: Cc1cn(-c2cc(NC(=O)c3ccc(C)c(Nc4nccc(-c5cccnc5)n4)c3)cc(C(F)(F)F)c2)cn1 [nilotinib]
Method in brief: as §1

[7] = compound: Cc1nc(Nc2n[nH]c3c2CN(C(=O)N[C@H](CN(C)C)c2ccccc2)C3(C)C)c2sccc2n1
Method in brief: as §1

[8] = compound: Cc1ncc(-c2ccnc(Nc3ccc(S(C)(=O)=O)cc3)n2)n1C(C)C
Method in brief: as §1

[9] = compound: Cn1cncc1[C@@](N)(c1ccc(Cl)cc1)c1ccc2c(c1)c(-c1cccc(Cl)c1)cc(=O)n2C [tipifarnib]
Method in brief: as §1

[10] = compound: CS(=O)(=O)CCNCc1ccc(-c2ccc3ncnc(Nc4ccc(OCc5cccc(F)c5)c(Cl)c4)c3c2)o1 [lapatinib]
Method in brief: as §1

[11] = compound: NC(=O)c1cnc(N[C@@H]2CCCC[C@@H]2N)nc1Nc1cccc(-n2nccn2)c1
Method in brief: as §1

[12] = compound: C[C@@H](Oc1cc(-c2cnn(C3CCNCC3)c2)cnc1N)c1c(Cl)ccc(F)c1Cl [crizotinib]
Method in brief: as §1

[13] = compound: C[C@H](Nc1ncnc2nc[nH]c12)c1cc2cccc(Cl)c2c(=O)n1-c1ccccc1 [duvelisib]
Method in brief: as §1

[14] = compound: Cc1cc(Nc2cc(N3CCN(C)CC3)nc(Sc3ccc(NC(=O)C4CC4)cc3)n2)n[nH]1 [tozasertib]
Method in brief: as §1

[15] = compound: Cc1ccc(-n2nc(C(C)(C)C)cc2NC(=O)Nc2ccc(OCCN3CCOCC3)c3ccccc23)cc1 [doramapimod]
Method in brief: as §1

[16] = compound: Cc1nc(Nc2ncc(C(=O)Nc3c(C)cccc3Cl)s2)cc(N2CCN(CCO)CC2)n1 [dasatinib]
Method in brief: as §1

[17] = compound: Cn1cc(-c2ccc3c(c2)CCN3C(=O)Cc2cccc(C(F)(F)F)c2)c2c(N)ncnc21
Method in brief: as §1

[18] = compound: Cn1cc(CNCC2CCN(c3ncc(C(=O)NO)cn3)CC2)c2ccccc21 [quisinostat]
Method in brief: as §1

[19] = compound: NC(=O)Nc1cc(-c2cccc(F)c2)sc1C(=O)N[C@H]1CCCNC1
Method in brief: as §1

[20] = compound: NC1(c2ccc(-c3nc4ccn5c(=O)[nH]nc5c4cc3-c3ccccc3)cc2)CCC1
Method in brief: as §1

Measured: log2 fold change

DOLK (UniProt Q9UPQ8)
inactive: [1] -0.098 | [2] 0.183 | [3] -0.02

DOCK11, A0A0J9YW64
inactive: [4] -0.164 | [1] 0.032 | [2] -0.251 | [5] -0.151 | [3] -0.191 | [6] -0.005 | [7] -0.019 | [8] -0.061 | [9] 0.088

DOCK5 (UniProt Q9H7D0)
inactive: [10] -0.36 | [11] -0.147

DNA2 (UniProt P51530)
inactive: [12] -0.046 | [1] 0.052 | [13] -0.02 | [2] 0.013 | [14] -0.07 | [15] 0.051 | [3] -0.017 | [6] 0.011 | [7] 0.007 | [16] 0.069 | [8] 0.005 | [17] 0.05 | [18] -0.069 | [9] -0.04 | [19] 0.043 | [20] 0.067

DIPK1A (UniProt Q5T7M9)
inactive: [14] 0.071

DGLUCY isoform 2 (UniProt Q7Z3D6)
inactive: [12] -0.117 | [15] 0.16 | [18] -0.02 | [19] 0.06

DMBT1 isoform 6 (UniProt Q9UGM3)
inactive: [1] 0.158 | [2] -0.554 | [14] 0.648 | [3] 0.006 | [6] -0.03 | [7] 0.116 | [8] -0.01 | [9] -0.334

DLG5 (UniProt Q8TDM6)
inactive: [4] 0.029 | [13] 0.149 | [5] 0.038 | [16] 0.024 | [17] -0.052

DMAC1 (UniProt Q96GE9)
inactive: [1] 0.176 | [2] -0.122 | [3] -0.026

DHX34 (UniProt Q14147)
inactive: [4] 0.124 | [12] -0.067 | [1] -0.012 | [13] 0.023 | [2] -0.287 | [14] 0.012 | [15] -0.004 | [5] -0.116 | [3] 0.048 | [6] 0.042 | [7] 0.066 | [16] -0.165 | [8] 0.036 | [17] 0.006 | [18] -0.062 | [9] 0.027 | [19] 0.075 | [20] -0.054

DNMT1 (UniProt P26358)
inactive: [4] 0.08 | [12] 0.019 | [1] 0.036 | [2] 0.022 | [15] 0.074 | [5] -0.017 | [3] -0.047 | [6] 0.049 | [7] 0.039 | [8] -0.047 | [18] -0.011 | [9] -0.115 | [19] -0.103

DHX32 (UniProt Q7L7V1)
inactive: [12] -0.03 | [1] -0.013 | [2] -0.01 | [14] 0.108 | [15] 0.012 | [3] -0.077 | [6] -0.025 | [7] -0.027 | [8] -0.044 | [18] -0.015 | [9] -0.061 | [19] 0.142 | [20] 0.108

DGCR6L (UniProt Q9BY27)
inactive: [12] -0.002 | [1] -0.211 | [2] 0.094 | [15] -0.121 | [3] 0.066 | [6] 0.029 | [7] -0.037 | [8] 0.132 | [18] -0.091 | [9] 0.066 | [19] 0.127

DNAL1 (UniProt Q4LDG9)
inactive: [4] -0.242 | [12] -0.053 | [1] -0.032 | [13] 0.088 | [2] -0.075 | [14] 0.058 | [15] -0.009 | [5] 0.032 | [3] -0.194 | [16] 0.277 | [17] -0.013 | [18] 0.039 | [19] 0.019 | [20] 0.003

DGKH (UniProt Q86XP1)
inactive: [4] -0.034 | [12] 0 | [1] -0.027 | [13] 0.109 | [2] -0.032 | [14] -0.107 | [15] 0.247 | [5] 0.058 | [3] 0.002 | [6] 0.127 | [7] 0 | [16] 0.014 | [8] 0.215 | [17] 0.122 | [18] -0.08 | [9] -0.082 | [19] 0.049 | [20] 0.027

DHPS (UniProt M0R1T2)
inactive: [1] -0.263 | [2] 0.333 | [3] 0.36 | [6] -0.175 | [7] -0.489 | [8] -0.277 | [9] -0.024

DLC1 (UniProt Q96QB1)
inactive: [4] 0.008 | [12] -0.115 | [14] -0.215 | [15] -0.162 | [5] -0.159 | [18] -0.193 | [19] -0.139

DOT1L isoform 1 (UniProt Q8TEK3)
inactive: [12] 0.211 | [13] -0.102 | [14] -0.022 | [15] 0.167 | [16] -0.091 | [17] -0.051 | [18] 0.057 | [19] 0.118 | [20] 0.04

DNAJC14 (UniProt Q6Y2X3)
inactive: [13] -0.082 | [14] -0.023 | [16] 0.148 | [17] -0.03

DNAJC16 (UniProt Q9Y2G8)
inactive: [4] -0.117 | [12] -0.168 | [1] 0.203 | [13] -0.109 | [2] -0.072 | [15] -0.153 | [5] 0.059 | [3] -0.091 | [6] 0.05 | [7] 0.024 | [16] -0.059 | [8] 0.079 | [17] -0.137 | [18] -0.02 | [9] -0.001 | [19] 0.014

DNAJB14 (UniProt H7C494)
inactive: [12] 0.116 | [1] -0.02 | [2] -0.082 | [15] -0.017 | [3] 0.03 | [18] 0.033 | [19] -0.043

DOP1A (UniProt Q5JWR5)
inactive: [4] 0.017 | [12] 0.006 | [13] -0.141 | [14] 0.022 | [15] -0.07 | [5] -0.065 | [6] 0.064 | [7] -0.01 | [16] -0.337 | [8] 0.016 | [17] 0.147 | [18] 0.034 | [9] -0.036 | [19] -0.034

2 successive records already listed, for reference:
DNAJB14 (UniProt H7C494)
inactive: [12] 0.116 | [1] -0.02 | [2] -0.082 | [15] -0.017 | [3] 0.03 | [18] 0.033 | [19] -0.043

DOP1A (UniProt Q5JWR5)
inactive: [4] 0.017 | [12] 0.006 | [13] -0.141 | [14] 0.022 | [15] -0.07 | [5] -0.065 | [6] 0.064 | [7] -0.01 | [16] -0.337 | [8] 0.016 | [17] 0.147 | [18] 0.034 | [9] -0.036 | [19] -0.034

The list continues.

DOCK6 (UniProt Q96HP0)
inactive: [13] -0.144 | [16] 0.121 | [17] -0.099 | [20] -0.026

DHRSX (UniProt Q8N5I4)
inactive: [13] 0.162 | [16] 0.007 | [17] -0.056 | [20] -0.083

DLGAP5 isoform 3 (UniProt Q15398)
inactive: [4] 0.092 | [1] -0.176 | [13] -0.098 | [2] 0.05 | [5] 0.031 | [3] -0.505 | [16] 0.017 | [17] 0.18

DGKE (UniProt P52429)
inactive: [1] -0.139 | [13] -0.027 | [2] 0.18 | [14] -0.301 | [3] 0.178 | [16] 0.118 | [17] 0.039 | [20] 0.046

DNAJC19, A0A2R8Y839
inactive: [12] -0.217 | [15] 0.017 | [6] -0.024 | [7] -0.159 | [8] 0.104 | [18] -0.23 | [9] -0.203 | [19] 0.076

DMD isoform 14 (UniProt P11532)
inactive: [4] -0.087 | [12] 0.041 | [1] 0.204 | [13] -0.017 | [2] 0.194 | [15] -0.043 | [5] 0.062 | [3] 0.313 | [16] 0.182 | [17] 0.359 | [18] -0.024 | [19] -0.009

From the supplement of paper PMC10849652
